Source: patent US20100015058A1, “RADIOLABELED BBN-RGD HETERODIMERS FOR CANCER TARGETING” (STANFORD UNIVERSITY, priority 2008, published 2010)
Part of at least one peptide drawing is inferred or uncertain, most often the ends.

Test system: PC-3 tumor cells
Type: cell-based, human
Conditions: PC-3 cells, 60 min efflux, FIG. 14D
Experimental: In the cell efflux experiment, PC-3 cells were seeded into 12-well plates at a density of 5×10^5 cells per well for overnight incubation. Cells were rinsed 3 times with PBS and then the appropriate ^18F-labeled peptide tracer was added. The cells were incubated at 37° C. for 2 hr, washed with PBS, and then reincubated with serum-free medium. The cells were washed at different time points (0, 15, 30, 60, 120, 180 min) with PBS and lysed with NaOH-SDS (0.2 M NaOH, 1% SDS). The cell lysate was collected in measurement tubes for counting. Efflux values at different time points were calculated by subtracting retention from 0-min retention, and normalized by dividing the total counts at 0 min.
The cell uptake studies were performed as we have previously described with some modifications (Chen et al., Mol Imaging Biol. (2004) […]; Cai et al., (2006) J. Nuc. Med. 47: 1172-1180, incorporated herein by reference in their entireties). […] The cell suspensions were collected and measured in a y counter (Packard, Meriden, Conn.). The cell uptake was expressed as the percent added dose (% AD) after decay correction. […] The cell suspensions were collected and measured in a γ counter. […] Data are expressed as percent added dose after decay correction.

N=C(N)NCCC[C@@H]1NC(=O)[C@H](CCCCNC(=S)Nc2ccc(C[C@H]3CN(CC(=O)O)CCN(CC(=O)O)CCN3CC(=O)O)cc2)NC(=O)[C@@H](Cc2ccc(O)cc2)NC(=O)[C@H](CC(=O)O)NC(=O)CNC1=O [^68Ga-NOTA-RGD, metal not drawn, reference compound]
cell-associated tracer (cell retention): 0.10±0.13 % AD
